{"source": "PubChem BioAssay AID2685", "about": "(National Center for Advancing Translational Sciences (NCATS), 2010)", "note": "About 2,100 (0.66%) of roughly 320,000 compounds were called active. The inconclusive results got no clear call from the source; some entries with a clear call stand among them for comparison. Calls follow the shape of the dose curve; as a rule, active = well fitted inhibition curve with a large enough effect in the signal ratio, with a control signal flat (not every such curve was filed as active); inconclusive = small, poorly fitted or top-dose-only effect, or effect the other way, or a change in a side signal; inactive = flat fitted curve, though single readings scatter; the % refers to the signal ratio. Where the call is inconclusive, the potency comes from a doubtful curve fit. % is scaled to controls: 0 for no effect and ±100 for the full control effect; potency is read from the fitted curve at half-maximal effect.", "data": [{"experiment": "qHTS Assay for Lipid Storage Modulators in Drosophila S3 Cells", "settings": "BODIPY lipid droplet fluorescence, 18-24 h, cells fed with added oleic acid; lipid storage change, negative = inhibition: at 46.1 µM (top of the series) unless noted", "how_it_was_run": "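Drosophila S3 cells loaded with oleic acid (400 uM, as added) and compounds at several concentrations; lipid droplets imaged by 488-nm laser-scanning cytometry, 500–530 nm intensity and object ratio to cell channel. Percent activity normalized to 20 uM Triacsin C.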", "values": [{"smiles": "CCCSc1nc2c(cnn2-c2ccc(F)cc2)c(=O)[nH]1", "lipid storage change, negative = inhibition": "inconclusive: 14.9%"}, {"smiles": "O=C(CSc1n[nH]c(-c2cccnc2)n1)Nc1ccnc2ccccc12", "lipid storage change, negative = inhibition": "inconclusive: 34.2%"}, {"smiles": "CCOC(=O)CSc1nc2ccccc2c(=O)n1CCCCCC(=O)NCc1ccco1", "Potency": "inconclusive: 1.03 µM [activator, partial curve]"}, {"smiles": "O=C(COC(=O)/C=C/C(=O)N1CCN(c2ccccc2)CC1)NC(c1ccccc1)c1ccccc1", "lipid storage change, negative = inhibition": "inconclusive: 7.05%"}, {"smiles": "CC1CCN(Cc2c(C(=O)N/N=C/c3ccccc3O)nnn2-c2nonc2N)CC1", "Potency": "inconclusive: 29.1 µM [falling, single point]"}, {"smiles": "CCCCn1c(N)c(N(CCOC)C(=O)CSCc2ccccc2C)c(=O)[nH]c1=O", "lipid storage change, negative = inhibition": "inconclusive: 2.78%"}, {"smiles": "O=C(COc1ccc([N+](=O)[O-])cc1Cl)N(C1CCCCC1)C1CCS(=O)(=O)C1", "note": "(centres undefined)", "lipid storage change, negative = inhibition": "inconclusive"}, {"smiles": "CCc1ccc(-c2csc(NC(=O)COC(=O)CCc3nc4ccccc4s3)n2)cc1", "Potency": "inconclusive: 29.1 µM [activator, single point]"}, {"smiles": "CCCCc1ccc(NC(=S)N2CCN(C(=O)c3ccco3)CC2)cc1", "lipid storage change, negative = inhibition": "inconclusive: 5.11%"}, {"smiles": "Clc1ccc(OCCn2ccnc2)c2ccccc12", "lipid storage change, negative = inhibition": "inconclusive: 19.7%"}, {"smiles": "O=C(COc1ccccc1[N+](=O)[O-])Nc1cc(C(=O)O)cc(C(=O)O)c1", "lipid storage change, negative = inhibition": "inactive"}, {"smiles": "CC(NC(=O)COC(=O)c1ccc(N(C)C)cc1)c1ccccc1", "note": "(centres undefined)", "lipid storage change, negative = inhibition": "inconclusive: -9.95%"}, {"smiles": "COc1ccc(N(CC(=O)N/N=C/c2ccco2)S(=O)(=O)c2ccccc2)cc1Cl", "lipid storage change, negative = inhibition": "inconclusive: -12.7%"}, {"smiles": "CCOC(=O)C1(C)NC(c2ccc(N(C)C)cc2)C2C(=O)N(c3ccc(OC)cc3)C(=O)C21", "note": "(centres undefined)", "lipid storage change, negative = inhibition": "inconclusive: 0.843%"}, {"smiles": "O=C(O)c1ccc(CNCc2ccccc2Cl)cc1", "lipid storage change, negative = inhibition": "inconclusive: 2.48%"}, {"smiles": "Cc1cccc(-c2nc(CC(=O)Nc3cccc(S(=O)(=O)NC4=NCCC4)c3)cs2)c1", "lipid storage change, negative = inhibition": "inconclusive: 3.11%"}, {"smiles": "CC1Oc2ccccc2N(Cc2ccc(F)cc2)C1=O", "note": "(centres undefined)", "lipid storage change, negative = inhibition": "inconclusive: 11.3%"}, {"smiles": "O=C(CSc1ccc(Br)cc1)NCC1CCCO1", "note": "(centres undefined)", "lipid storage change, negative = inhibition": "inconclusive: 7.58%"}, {"smiles": "N#Cc1c(C(F)(F)F)cc(-c2ccccc2)nc1SCCN1CCOCC1", "lipid storage change, negative = inhibition": "inconclusive: 13.6%"}, {"smiles": "CC(C)(C)OC(=O)N1CCC(c2c(C(=O)N3CCN(C(=O)c4ccco4)CC3)cnn2-c2ccc(F)cc2)CC1", "lipid storage change, negative = inhibition": "inconclusive: -20.8%"}, {"smiles": "NS(=O)(=O)c1ccc(NC(=O)COC(=O)CCC2CCCCC2)cc1", "lipid storage change, negative = inhibition": "inconclusive: 15.8%"}, {"smiles": "NC(=O)CSc1ncnc2c1nnn2Cc1ccc(F)cc1", "lipid storage change, negative = inhibition": "inconclusive: 12.5%"}, {"smiles": "Cc1occc1C(=O)O/N=C(\\N)c1ccccc1", "lipid storage change, negative = inhibition": "inconclusive: 21.8%"}, {"smiles": "Oc1ccc(/C=N/N=C(c2ccccc2)c2ccccc2)c(O)c1O", "Potency": "inconclusive: 20.6 µM [cytotoxic, single point]"}, {"smiles": "CCN(CC)CCNC(=O)CCc1c(C)nc2c(c(C)nn2-c2ccc(C)cc2)c1C", "lipid storage change, negative = inhibition": "inconclusive: -13.1%"}, {"smiles": "CCCN1C(=O)c2cc(C(=O)Nc3cccc(C(C)=O)c3)ccc2C1Nc1cccc(C(C)=O)c1", "note": "(centres undefined)", "lipid storage change, negative = inhibition": "inconclusive: 9.67%"}, {"smiles": "CN(CCOc1ccccc1)C(=O)C1CCC(=O)N(CCc2ccc(Cl)cc2)C1", "note": "(centres undefined)", "Potency": "inconclusive: 0.517 µM [falling, full curve, poor fit]"}, {"smiles": "COc1ccc(-c2nc(CSCC(=O)N3CCc4ccccc43)c(C)o2)cc1OC", "lipid storage change, negative = inhibition": "inconclusive: 25.7%"}, {"smiles": "CC(=O)C(/C=N/c1ncc(C(F)(F)F)cc1Cl)=C(\\C)O", "lipid storage change, negative = inhibition": "inconclusive: -7.79%"}, {"smiles": "CC(NC(=O)c1ccc([N+](=O)[O-])cc1Cl)C1CC2CCC1C2", "note": "(centres undefined)", "Potency": "inconclusive: 0.0046 µM [falling, full curve, poor fit]"}, {"smiles": "COc1ccc(OC)c(-n2c(-c3cccc(S(=O)(=O)N(C)C)c3)n[nH]c2=S)c1", "lipid storage change, negative = inhibition": "inconclusive: 23.6%"}, {"smiles": "Fc1ccc(COc2ccccc2CNc2nn[nH]n2)cc1", "lipid storage change, negative = inhibition": "inconclusive: 23.7% [at 9.22 µM]"}, {"smiles": "CC(C)C(C(=O)Nc1ccc(S(N)(=O)=O)cc1)N1C(=O)c2ccccc2C1=O", "note": "(centres undefined)", "lipid storage change, negative = inhibition": "inconclusive: -4.49%"}, {"smiles": "O=c1cc(CSc2ccc(Cl)cc2)nc(-c2ccncc2)[nH]1", "lipid storage change, negative = inhibition": "inconclusive: 17.5%"}, {"smiles": "CC(C)Nc1nc(Oc2ccc(Cl)cc2)cc(C(F)(F)F)n1", "lipid storage change, negative = inhibition": "inconclusive: -6.36%"}, {"smiles": "CCN(CC)C(=S)SCC(=O)Nc1ncc2c(n1)CC(C)(C)CC2=O", "lipid storage change, negative = inhibition": "inconclusive: 13.7%"}, {"smiles": "CCc1c(O)cc2n(c1=O)-c1ccc(Cl)cc1C2(C)C", "lipid storage change, negative = inhibition": "inconclusive: -22.4%"}, {"smiles": "CCOC(=O)N/N=C/c1c(F)cccc1F", "lipid storage change, negative = inhibition": "inconclusive: 0.727%"}, {"smiles": "Cc1cnc(C(=O)Nc2nnc(C3CC3)s2)cn1", "lipid storage change, negative = inhibition": "inconclusive: -17.7%"}, {"smiles": "Cc1ccc(S(=O)(=O)NC(CC(C)C)C(=O)N2CCCCCCC2)cc1", "note": "(centres undefined)", "lipid storage change, negative = inhibition": "inconclusive"}, {"smiles": "COc1ccccc1C(=O)N1CCN(S(=O)(=O)c2ccccc2)CC1", "lipid storage change, negative = inhibition": "inconclusive: 8.89%"}, {"smiles": "CN1CCCCc2c1[nH]c1ccccc1c2=O", "Potency": "inconclusive: 6.51 µM [falling, single point]"}, {"smiles": "COc1ccc2oc(C(=O)OCC(=O)NCc3ccc(OC)c(OC)c3)c(C)c2c1", "lipid storage change, negative = inhibition": "inconclusive"}, {"smiles": "N=C1/C(=C\\c2ccc(-c3ccc(C(=O)O)cc3)o2)C(=O)N=C2SC=C(c3ccccc3)N12", "lipid storage change, negative = inhibition": "inconclusive: 19.5%"}, {"smiles": "Fc1nc(F)c(F)c(NCCCNc2c(F)c(F)nc(F)c2F)c1F", "lipid storage change, negative = inhibition": "inconclusive: 2.48%"}, {"smiles": "CC12CCC(C(=O)NCCN3CCCCC3)(CC1=O)C2(C)C", "note": "(centres undefined)", "Potency": "inconclusive: 11.6 µM [falling, single point]"}, {"smiles": "CC(C#N)(NC(=O)CN1CCN(S(=O)(=O)c2ccccc2Cl)CC1)C1CC1", "note": "(centres undefined)", "lipid storage change, negative = inhibition": "inconclusive: 14.3%"}, {"smiles": "Cc1cc(Br)cc(C)c1NC(=O)c1ccc(C#N)cc1F", "lipid storage change, negative = inhibition": "inactive"}, {"smiles": "COc1cccc(CN(C)C(c2ccccc2)c2ccccc2)c1OC", "lipid storage change, negative = inhibition": "inconclusive: 221%"}, {"smiles": "Cc1cccc(Nc2ncnc3onc(-c4cccc(Cl)c4)c23)c1C", "lipid storage change, negative = inhibition": "inconclusive: -25.6%"}, {"smiles": "Cc1c(C(=O)Nc2cc(F)cc(F)c2)cnn1-c1ccccc1", "lipid storage change, negative = inhibition": "inconclusive: -41.8%"}, {"smiles": "CCc1ccccc1N=C1SCC(=O)N1C", "lipid storage change, negative = inhibition": "inconclusive: 7.37%"}, {"smiles": "O=C(c1ccc(NC2=NC3CS(=O)(=O)CC3S2)cc1)N1CCN(c2ccccc2)CC1", "note": "(centres undefined)", "lipid storage change, negative = inhibition": "inconclusive: 3.19%"}, {"smiles": "O=C(CSc1ccc2nnc(-c3ccccn3)n2n1)Nc1cccc(F)c1", "lipid storage change, negative = inhibition": "inconclusive: -17.9%"}, {"smiles": "COc1ccc(C(=O)n2nc(-c3ccc(OC)cc3)nc2N)cc1", "Potency": "inconclusive: 0.651 µM [activator, single point]"}, {"smiles": "Cc1c(NC(=O)C(C)OC(=O)Cc2ccc(F)cc2)c(=O)n(-c2ccccc2)n1C", "note": "(centres undefined)", "lipid storage change, negative = inhibition": "inconclusive: -14%"}, {"smiles": "C#CCOCCOCCOCCNc1nc(N2CCN(C(=O)[C@H](CCCCN)n3cc(C(N)CO)nn3)CC2)nc(N2CCN(C(=O)[C@H](CCC(=O)O)n3cc(C(N)CC(C)C)nn3)CC2)n1", "note": "(some centres undefined)", "lipid storage change, negative = inhibition": "inconclusive: 14%"}, {"smiles": "CCCn1c(C)cc(/C=C(\\C#N)C(=O)OCC(=O)Nc2cccc(OC)c2)c1C", "Potency": "inconclusive: 6.51 µM [rising, single point]"}, {"smiles": "O=C(O)c1ccccc1C(=O)NCCCCCCNC(=O)c1ccccc1C(=O)O", "lipid storage change, negative = inhibition": "inconclusive: 6.48%"}, {"smiles": "O=C(COc1ccccc1Cl)NCc1ccncc1", "lipid storage change, negative = inhibition": "inconclusive: 73.9%"}, {"smiles": "CCOc1ccccc1NC(=S)N1CCC(c2nc3ccccc3o2)CC1", "Potency": "inconclusive: 20.6 µM [falling, single point]"}, {"smiles": "Cc1ccc(Cl)cc1NC(=O)CN1C(=O)NC2(CCCCCC2)C1=O", "lipid storage change, negative = inhibition": "inconclusive: -79.3%"}, {"smiles": "O=C(NCCS(=O)(=O)NCC1CCCO1)c1ccccc1", "note": "(centres undefined)", "lipid storage change, negative = inhibition": "inconclusive: -24.6%"}, {"smiles": "O=C(c1cc2cc(Cl)ccc2oc1=O)N1CCOCC1", "lipid storage change, negative = inhibition": "inconclusive: -56.7%"}, {"smiles": "CCOC(=O)c1ccc(S(=O)(=O)NNS(=O)(=O)c2ccc(C)cc2)cc1", "lipid storage change, negative = inhibition": "inconclusive: 11.3%"}, {"smiles": "CC(C)NC(=O)C(c1ccc(F)cc1)N(C(=O)CCC(=O)Nc1ccccn1)C1CCCC1", "note": "(centres undefined)", "Potency": "inconclusive: 0.206 µM [falling, single point]"}, {"smiles": "O=C(Nc1ccc(C(=O)O)cc1)/C(=C\\c1ccc2c(c1)OCO2)NC(=O)c1ccc(Br)o1", "lipid storage change, negative = inhibition": "inconclusive: 7.84%"}, {"smiles": "COc1ccc(OC)c(NC(=O)COC(=O)CN2C(=O)NC3(CCCC3)C2=O)c1", "lipid storage change, negative = inhibition": "inconclusive: 13%"}, {"smiles": "O=C(O)Cn1cc(/C=N/NC(=O)c2cc3cc(Br)ccc3o2)c2ccccc21", "lipid storage change, negative = inhibition": "inconclusive: 17.9%"}, {"smiles": "CCCSc1nc(C)cc(=O)[nH]1", "lipid storage change, negative = inhibition": "inactive"}, {"smiles": "CCOc1ccccc1NC(=O)CSc1nc2ccccc2c(=O)n1CC1CCCO1", "note": "(centres undefined)", "Potency": "inconclusive: 1.16 µM [activator, single point]"}, {"smiles": "CCS(=O)(=O)c1ccc(-c2cccc(NC(=O)COc3ccc(Cl)cc3)c2)nn1", "lipid storage change, negative = inhibition": "inconclusive: 12.7%"}, {"smiles": "CC1CCN(C(=O)Cn2c(=O)n(CCc3ccccc3)c(=O)c3ccccc32)CC1", "Potency": "inconclusive: 16.4 µM [activator, partial curve, poor fit]"}, {"smiles": "N#Cc1cc([N+](=O)[O-])ccc1NCC1CCCO1", "note": "(centres undefined)", "lipid storage change, negative = inhibition": "inconclusive: 88.6%"}, {"smiles": "COc1ccc(C(=O)NCCCN2CCCC2=O)cc1", "Potency": "inconclusive: 18.4 µM [falling, single point]"}, {"smiles": "Cc1cc(C)c(C)c(S(=O)(=O)NCc2ccncc2)c1C", "lipid storage change, negative = inhibition": "inconclusive: -138%"}, {"smiles": "CCc1nnc(NC(=O)CSc2sc3c(O)cc(=O)[nH]c3c2C#N)s1", "Potency": "inconclusive: 2.91 µM [activator, single point]"}, {"smiles": "Cc1cc(C)n2c(SC(C)C(=O)NC3(C#N)CCCCC3)nnc2n1", "note": "(centres undefined)", "Potency": "inconclusive: 14.6 µM [activator, partial curve]"}, {"smiles": "COc1cccc(NC(=O)CN(C)C(=O)c2cccc(S(=O)(=O)Nc3ccccc3OC)c2)c1", "Potency": "inconclusive: 14.6 µM [activator, single point]"}]}]}
